The values below come from PubChem BioAssay AID330 (DTP/NCI, 2004).

For the assay, the system named is P388 leukemia ip, CD2F1 mice, survival T/C. Briefly: NCI In Vivo Anticancer Drug Screen. Data for tumor model P388 Leukemia (intraperitoneal) in CD2F1 (CDF1) mice. The settings on record: T/C endpoint: median survival time, higher T/C = longer survival.
[1] abbreviates: dose: 200.0 mg/kg/injection, schedule: Q01DX005 (ip), vehicle: Klucel (hydroxypropylcellulose) (HPC).

The list does not hold the whole screen: it gathers tests that were run many times, whatever their T/C, doses with no T/C, and many T/C values between a quarter and a half above the control. Further doses and runs are listed elsewhere. T/C: endpoint of the treated group in % of that of the vehicle group. Some entries give survivors of the animals treated and no T/C: the source files T/C as zero there, which appears to mark a toxic dose or a test without result, not a measured value. Some survivor counts are full or nearly so, which does not show that the dose was tolerated: the source hardly ever lists a survival T/C far under the control, and the zero likely stands for such cases as well. Survivors were counted at the toxicity check, usually on the fifth day, unless a day is given; later deaths do not show. Schedules are NCI's codes, taken here to give the interval after Q, in days (D) or hours (H), and the number of doses after X. Where survival is the endpoint, the PubChem record calls one and a half times the control and up active, and a quarter to a half above the control has no call in these data; cut-offs in other NCI protocols can differ. Some T/C values are followed by the survivors on the day toxicity was checked, most often the fifth; where none is given, no animal had died by that day. Some entries were tested several times; their values stand side by side, smallest first.

Take `Oc1cccc2c1[O][Sb][O]2`: the T/C is 129 % of control (dose: 8.0 mg/kg/injection, schedule: Q01DX009 (ip), vehicle: Klucel (hydroxypropylcellulose) (HPC)); 133 % of control [9 of 10 alive] (dose: 16.0 mg/kg/injection, schedule: Q01DX009 (ip), vehicle: Klucel (hydroxypropylcellulose) (HPC)); 142 % of control (dose: 25.0 mg/kg/injection, schedule: Q01DX009 (ip), vehicle: saline); 136 % of control (dose: 25.0 mg/kg/injection, schedule: Q04DX003 (ip), vehicle: saline with Tween-80); 133 % of control (dose: 32.0 mg/kg/injection, schedule: Q01DX009 (ip), vehicle: Klucel (hydroxypropylcellulose) (HPC)); 131 % of control [8 of 10 alive] (dose: 32.0 mg/kg/injection, schedule: Q04DX003 (ip), vehicle: Klucel (hydroxypropylcellulose) (HPC)). Moreover, the T/C was 131 % of control [9 of 10 alive] (dose: 32.0 mg/kg/injection, schedule: Q08DX002 (ip), vehicle: Klucel (hydroxypropylcellulose) (HPC)); 136 % of control (dose: 50.0 mg/kg/injection, schedule: Q04DX003 (ip), vehicle: saline with Tween-80); 138 % of control [7 of 10 alive] (dose: 64.0 mg/kg/injection, schedule: Q01DX009 (ip), vehicle: Klucel (hydroxypropylcellulose) (HPC)); 137 % of control [8 of 10 alive] (dose: 64.0 mg/kg/injection, schedule: Q04DX003 (ip), vehicle: Klucel (hydroxypropylcellulose) (HPC)); 137 % of control [7 of 10 alive] (dose: 64.0 mg/kg/injection, schedule: Q08DX002 (ip), vehicle: Klucel (hydroxypropylcellulose) (HPC)); 136 % of control (dose: 100.0 mg/kg/injection, schedule: Q04DX003 (ip), vehicle: saline with Tween-80). Further, the survivor count (dose: 8.0 mg/kg/injection, schedule: Q03HX008 (ip), vehicle: Klucel (hydroxypropylcellulose) (HPC)) was 6 of 10; the survivor count (dose: 8.0 mg/kg/injection, schedule: Q03HX016 (ip), vehicle: Klucel (hydroxypropylcellulose) (HPC)) is recorded as 5 of 10; the survivor count (dose: 16.0 mg/kg/injection, schedule: Q03HX008 (ip), vehicle: Klucel (hydroxypropylcellulose) (HPC)) is on record as 0 of 10; the survivor count (dose: 16.0 mg/kg/injection, schedule: Q03HX016 (ip), vehicle: Klucel (hydroxypropylcellulose) (HPC)) is 1 of 10; the survivor count (dose: 16.0 mg/kg/injection, schedule: Q03HX024 (ip), vehicle: Klucel (hydroxypropylcellulose) (HPC)) is 0 of 10; the survivor count (dose: 32.0 mg/kg/injection, schedule: Q03HX008 (ip), vehicle: Klucel (hydroxypropylcellulose) (HPC)) is recorded as 0 of 10. The survivor count is listed as 0 of 10 (dose: 32.0 mg/kg/injection, schedule: Q03HX016 (ip), vehicle: Klucel (hydroxypropylcellulose) (HPC)); 0 of 10 (dose: 32.0 mg/kg/injection, schedule: Q03HX024 (ip), vehicle: Klucel (hydroxypropylcellulose) (HPC)); 0 of 10 (dose: 64.0 mg/kg/injection, schedule: Q03HX008 (ip), vehicle: Klucel (hydroxypropylcellulose) (HPC)); 0 of 10 (dose: 64.0 mg/kg/injection, schedule: Q03HX016 (ip), vehicle: Klucel (hydroxypropylcellulose) (HPC)); 0 of 10 (dose: 64.0 mg/kg/injection, schedule: Q03HX024 (ip), vehicle: Klucel (hydroxypropylcellulose) (HPC)); 2 of 6 (dose: 100.0 mg/kg/injection, schedule: Q01DX009 (ip), vehicle: saline). Also, the survivor count is listed as 2 of 10 (dose: 128.0 mg/kg/injection, schedule: Q01DX009 (ip), vehicle: Klucel (hydroxypropylcellulose) (HPC)); 0 of 10 (dose: 128.0 mg/kg/injection, schedule: Q03HX008 (ip), vehicle: Klucel (hydroxypropylcellulose) (HPC)); 5 of 10 (dose: 128.0 mg/kg/injection, schedule: Q04DX003 (ip), vehicle: Klucel (hydroxypropylcellulose) (HPC)); 6 of 10 (dose: 128.0 mg/kg/injection, schedule: Q08DX002 (ip), vehicle: Klucel (hydroxypropylcellulose) (HPC)); 0 of 10 (dose: 256.0 mg/kg/injection, schedule: Q01DX001 (ip), vehicle: Klucel (hydroxypropylcellulose) (HPC)); 0 of 10 (dose: 256.0 mg/kg/injection, schedule: Q04DX003 (ip), vehicle: Klucel (hydroxypropylcellulose) (HPC)). Further, the survivor count (dose: 256.0 mg/kg/injection, schedule: Q08DX002 (ip), vehicle: Klucel (hydroxypropylcellulose) (HPC)) is given as 0 of 10; the survivor count (dose: 512.0 mg/kg/injection, schedule: Q01DX001 (ip), vehicle: Klucel (hydroxypropylcellulose) (HPC)) was 0 of 10; the survivor count (dose: 512.0 mg/kg/injection, schedule: Q04DX003 (ip), vehicle: Klucel (hydroxypropylcellulose) (HPC)) is listed as 0 of 10; the survivor count (dose: 512.0 mg/kg/injection, schedule: Q08DX002 (ip), vehicle: Klucel (hydroxypropylcellulose) (HPC)) is listed as 0 of 10; the survivor count (dose: 1024.0 mg/kg/injection, schedule: Q01DX001 (ip), vehicle: Klucel (hydroxypropylcellulose) (HPC)) is 0 of 10.

In the case of `Cc1cc2nc3c(=O)[nH]c(=O)nc-3n(CC=O)c2cc1C`, the survivor count (dose: 512.0 mg/kg/injection, schedule: Q01DX009 (ip), vehicle: saline with Tween-80) is listed as 5 of 6.

Take `CCCCOP(O)(=S)OCCCC.[Gd]`: the survivor count (dose: 100.0 mg/kg/injection, schedule: Q01DX009 (ip), vehicle: saline with Tween-80) is reported as 6 of 6.

On to `CC(C)Nc1nc(Cl)nc(Cl)n1`, for which the survivor count under setting [1] is 4 of 5.

Take `CCOC(=O)c1cc2c(nn3c(C)cccc23)n(CC)c1=N`: the survivor count is 0 of 6 (dose: 100.0 mg/kg/injection, schedule: Q01DX001 (ip), vehicle: saline with Tween-80); 0 of 6 (dose: 200.0 mg/kg/injection, schedule: Q01DX001 (ip), vehicle: saline with Tween-80); 0 of 6 (dose: 400.0 mg/kg/injection, schedule: Q01DX001 (ip), vehicle: saline with Tween-80).

Take `NC1=NC(O)C=C1` (stereo not drawn): the survivor count reads like this: (dose: 50.0 mg/kg/injection, schedule: Q01DX005 (ip), vehicle: saline) 3 of 6; (dose: 100.0 mg/kg/injection, schedule: Q01DX005 (ip), vehicle: saline) 0 of 6.

For the molecule `CCN(CC)CCNc1ccc(COC(=O)NC)c2oc3ccccc3c(=O)c12`, the survivor count by setting is: (dose: 12.0 mg/kg/injection, schedule: Q01DX005 (ip), vehicle: distilled water + Tween-80) 5 of 6; (dose: 25.0 mg/kg/injection, schedule: Q01DX005 (ip), vehicle: distilled water + Tween-80) 0 of 6; (dose: 50.0 mg/kg/injection, schedule: Q01DX005 (ip), vehicle: distilled water + Tween-80) 0 of 6; (dose: 100.0 mg/kg/injection, schedule: Q01DX005 (ip), vehicle: distilled water + Tween-80) 0 of 6; (dose: 200.0 mg/kg/injection, schedule: Q01DX005 (ip), vehicle: distilled water + Tween-80) 0 of 6.

For `C1=CN2CC(c3ccccc3)N=C2S1` (stereo not drawn), the survivor count by setting is: (dose: 50.0 mg/kg/injection, schedule: Q01DX009 (ip), vehicle: other) 0 of 6; (dose: 100.0 mg/kg/injection, schedule: Q01DX009 (ip), vehicle: other) 0 of 6; (dose: 200.0 mg/kg/injection, schedule: Q01DX009 (ip), vehicle: other) 0 of 6; (dose: 400.0 mg/kg/injection, schedule: Q01DX009 (ip), vehicle: other) 0 of 6; (dose: 800.0 mg/kg/injection, schedule: Q01DX009 (ip), vehicle: other) 0 of 6; (dose: 1600.0 mg/kg/injection, schedule: Q01DX009 (ip), vehicle: other) 0 of 6.

As for `CC1(C)Nc2cccc3cccc(c23)N1`, the survivor count under setting [1] was 2 of 6.

In the case of `Cc1[nH]c2c(ccc3ccccc32)c(=O)c1N=Nc1ccc(C(=N)N)cc1`, the T/C was 142 % of control (dose: 50.0 mg/kg/injection, schedule: Q01DX005 (ip), vehicle: Klucel + Tween-80); 126 [5 of 6 alive] and 135 % of control (dose: 100.0 mg/kg/injection, schedule: Q01DX005 (ip), vehicle: Klucel + Tween-80); 135 % of control (dose: 200.0 mg/kg/injection, schedule: Q01DX005 (ip), vehicle: Klucel + Tween-80).
